Results taken from patent publication US9078442B2, “Herbicidally and fungicidally active 3-phenylisoxazoline-5-carboxamides and 3-phenylisoxazoline-5-thioamides” (BAYER INTELLECTUAL PROPERTY GMBH, priority 2011, dated 2015).
Some results were stated once for a whole list of compounds, not compound by compound.

Legend:
Format in all cases: in vivo
Details in all cases: application rate 320 grams per hectare, scored visually after 3 to 4 weeks
Alopecurus myosuroides [1] = assay: Post-emergence herbicidal action against harmful plants
Avena fatua = assay: as above
Lolium multiflorum [2] = assay: as above
Stellaria media [3] = assay: as above
Veronica persica [4] = assay: as above
Echinochloa crus galli [5] = assay: Pre-emergence herbicidal action against harmful plants
Lolium multiflorum [6] = assay: as above
Setaria viridis = assay: as above
Echinochloa crus galli [7] = assay: Post-emergence herbicidal action against harmful plants
Fallopia convolvulus = assay: Pre-emergence herbicidal action against harmful plants
Stellaria media [8] = assay: as above
Alopecurus myosuroides [9] = assay: as above
Veronica persica [10] = assay: as above

CCS(=O)(=O)NC(=O)CCNC(=O)C1(C)CC(c2cc(Cl)cc(Cl)c2)=NO1 (centres unmarked) [Example 6.491]
at least 90%: activity against Alopecurus myosuroides (Alopecurus myosuroides [1]) | activity against Avena fatua (Avena fatua)

COC(CCNC(=O)C1(C)CC(c2cc(Cl)cc(Cl)c2)=NO1)OC (centres unmarked) [Example 6.559]
at least 90%: activity against Lolium multiflorum (Lolium multiflorum [2]) | activity against Stellaria media (Stellaria media [3]) | activity against Veronica persica (Veronica persica [4])

CCn1cc(CNC(=O)C2(CC)CC(c3cccc(F)c3)=NO2)c(C)n1 (centres unmarked) [Example 2.189]
at least 90%: activity against Echinochloa crus galli (Echinochloa crus galli [5]) | activity against Lolium multiflorum (Lolium multiflorum [6]) | activity against Setaria viridis (Setaria viridis) | activity against Lolium multiflorum (Lolium multiflorum [2]) | activity against Stellaria media (Stellaria media [3]) | activity against Veronica persica (Veronica persica [4])

CC1(C(=O)NCCc2ccccn2)CC(c2cc(Cl)cc(Cl)c2)=NO1 (centres unmarked) [Example 1.676]
at least 90%: activity against Echinochloa crus galli (Echinochloa crus galli [5]) | activity against Lolium multiflorum (Lolium multiflorum [6]) | activity against Setaria viridis (Setaria viridis) | activity against Veronica persica (Veronica persica [4]) | activity against Echinochloa crus galli (Echinochloa crus galli [7])

CCCn1cc(CNC(=O)C2(C)CC(c3cc(F)c(Cl)c(F)c3)=NO2)c(C)n1 (centres unmarked) [Example 1.373]
at least 90%: activity against Echinochloa crus galli (Echinochloa crus galli [5]) | activity against Lolium multiflorum (Lolium multiflorum [6]) | activity against Setaria viridis (Setaria viridis) | activity against Veronica persica (Veronica persica [4]) | activity against Echinochloa crus galli (Echinochloa crus galli [7])

COC(=O)CCNC(=O)C1(C)CC(c2cc(Cl)cc(Cl)c2)=NO1 (centres unmarked) [Example 6.599]
at least 90%: activity against Lolium multiflorum (Lolium multiflorum [2]) | activity against Stellaria media (Stellaria media [3]) | activity against Veronica persica (Veronica persica [4])

COC(=O)CCNC(=O)C1(C)CC(c2cc(Cl)cc(OC)c2)=NO1 (centres unmarked) [Example 6.616]
at least 90%: activity against Alopecurus myosuroides (Alopecurus myosuroides [1]) | activity against Avena fatua (Avena fatua)

CCOC(=O)COc1cc(Cl)cc(C2=NOC(C)(C(=O)NC(C)C)C2)c1 (centres unmarked) [Example 6.195]
at least 90%: activity against Fallopia convolvulus (Fallopia convolvulus) | activity against Stellaria media (Stellaria media [8])

Cn1ncc(Cl)c1CNC(=O)C1(C)CC(c2ccccc2)=NO1 (centres unmarked) [Example 1.394]
at least 90%: activity against Fallopia convolvulus (Fallopia convolvulus) | activity against Stellaria media (Stellaria media [8])

CC1(C(=O)NCc2cn[nH]c2)CC(c2cccc(F)c2)=NO1 (centres unmarked) [Example 1.262]
at least 90%: activity against Fallopia convolvulus (Fallopia convolvulus) | activity against Stellaria media (Stellaria media [8])

CCOC(=O)CC(C)NC(=O)C1(C)CC(c2cc(CC)cc(CC)c2)=NO1 (centres unmarked) [Example 6.279]
at least 90%: activity against Alopecurus myosuroides (Alopecurus myosuroides [1]) | activity against Avena fatua (Avena fatua)

CC1(C(=O)NCCCn2cccn2)CC(c2cc(Cl)cc(Cl)c2)=NO1 (centres unmarked) [Example 1.903]
at least 90%: activity against Lolium multiflorum (Lolium multiflorum [2]) | activity against Stellaria media (Stellaria media [3]) | activity against Veronica persica (Veronica persica [4])

CCn1cc(CNC(=O)C2(C)CC(c3ccc(F)c(F)c3F)=NO2)c(C)n1 (centres unmarked) [Example 1.201]
at least 90%: activity against Fallopia convolvulus (Fallopia convolvulus) | activity against Stellaria media (Stellaria media [8])

CN(C(=O)CCNC(=O)C1(C)CC(c2cc(Cl)cc(Cl)c2)=NO1)S(=O)(=O)C1CC1 (centres unmarked) [Example 6.485]
at least 90%: activity against Lolium multiflorum (Lolium multiflorum [6]) | activity against Alopecurus myosuroides (Alopecurus myosuroides [9]) | activity against Veronica persica (Veronica persica [10]) | activity against Lolium multiflorum (Lolium multiflorum [2]) | activity against Stellaria media (Stellaria media [3]) | activity against Veronica persica (Veronica persica [4])

CCn1cc(CNC(=O)C2(C)CC(c3cc(C)ccc3C)=NO2)c(C)n1 (centres unmarked) [Example 1.183]
at least 90%: activity against Echinochloa crus galli (Echinochloa crus galli [5]) | activity against Lolium multiflorum (Lolium multiflorum [6]) | activity against Setaria viridis (Setaria viridis) | activity against Veronica persica (Veronica persica [4]) | activity against Echinochloa crus galli (Echinochloa crus galli [7])

CC(CC(=O)OC(C)C)NC(=O)C1(C)CC(c2cc(F)cc(F)c2)=NO1 (centres unmarked) [Example 6.248]
at least 90%: activity against Echinochloa crus galli (Echinochloa crus galli [5]) | activity against Lolium multiflorum (Lolium multiflorum [6]) | activity against Setaria viridis (Setaria viridis) | activity against Alopecurus myosuroides (Alopecurus myosuroides [1]) | activity against Avena fatua (Avena fatua)

Cc1nn(C)cc1CNC(=O)C1(C)CC(c2cc(F)cc(F)c2)=NO1 (centres unmarked) [Example 1.111]
at least 90%: activity against Lolium multiflorum (Lolium multiflorum [2]) | activity against Stellaria media (Stellaria media [3]) | activity against Veronica persica (Veronica persica [4])

Cc1c(CNC(=O)C2(C)CC(c3ccccc3)=NO2)cnn1C (centres unmarked) [Example 1.139]
at least 90%: activity against Fallopia convolvulus (Fallopia convolvulus) | activity against Stellaria media (Stellaria media [8])

CC1(C(=O)NCCC2OCCO2)CC(c2cc(Cl)cc(Cl)c2)=NO1 (centres unmarked) [Example 6.504]
at least 90%: activity against Echinochloa crus galli (Echinochloa crus galli [5]) | activity against Lolium multiflorum (Lolium multiflorum [6]) | activity against Setaria viridis (Setaria viridis) | activity against Lolium multiflorum (Lolium multiflorum [2]) | activity against Stellaria media (Stellaria media [3]) | activity against Veronica persica (Veronica persica [4]) | activity against Alopecurus myosuroides (Alopecurus myosuroides [1]) | activity against Avena fatua (Avena fatua)

CCOC(=O)C1=NOC(CNC(=O)C2(C)CC(c3cc(Cl)cc(Cl)c3)=NO2)C1 (centres unmarked) [Example 6.351]
at least 90%: activity against Fallopia convolvulus (Fallopia convolvulus) | activity against Stellaria media (Stellaria media [8])

COC(=O)CCNC(=O)C1(C#N)CC(c2cc(Cl)cc(Cl)c2)=NO1 (centres unmarked) [Example 9.581]
at least 90%: activity against Fallopia convolvulus (Fallopia convolvulus) | activity against Stellaria media (Stellaria media [8])

CCn1nc(C)cc1CNC(=O)C1(C)CC(c2cc(Cl)cc(Cl)c2)=NO1 (centres unmarked) [Example 1.252]
at least 90%: activity against Lolium multiflorum (Lolium multiflorum [2]) | activity against Stellaria media (Stellaria media [3]) | activity against Veronica persica (Veronica persica [4])

CCCCOC(=O)CCNC(=O)C1(C)CC(c2cc(Cl)cc(Cl)c2)=NO1 (centres unmarked) [Example 6.510]
at least 90%: activity against Lolium multiflorum (Lolium multiflorum [2]) | activity against Stellaria media (Stellaria media [3]) | activity against Veronica persica (Veronica persica [4])

COC(=O)CCNC(=O)C1(C)CC(c2cc(Cl)cc(OC(F)(F)F)c2)=NO1 (centres unmarked) [Example 6.617]
at least 90%: activity against Lolium multiflorum (Lolium multiflorum [6]) | activity against Alopecurus myosuroides (Alopecurus myosuroides [9]) | activity against Veronica persica (Veronica persica [10]) | activity against Alopecurus myosuroides (Alopecurus myosuroides [1]) | activity against Avena fatua (Avena fatua)

CC1(C(=O)NCC(=O)O)CC(c2cc(Cl)cc(Cl)c2)=NO1 (centres unmarked) [Example 6.420, N-{[3-(3,5-dichlorophenyl)-5-methyl-4,5-dihydro-1,2-oxazol-5-yl]carbonyl}glycine]
at least 90%: activity against Alopecurus myosuroides (Alopecurus myosuroides [1]) | activity against Avena fatua (Avena fatua)

CCn1cc(CNC(=O)C2(C)CC(c3cc(Cl)cc(OC(F)(F)F)c3)=NO2)c(C)n1 (centres unmarked) [Example 1.250]
at least 90%: activity against Echinochloa crus galli (Echinochloa crus galli [5]) | activity against Lolium multiflorum (Lolium multiflorum [6]) | activity against Setaria viridis (Setaria viridis) | activity against Veronica persica (Veronica persica [4]) | activity against Echinochloa crus galli (Echinochloa crus galli [7])

COc1cc(F)cc(C2=NOC(C)(C(=O)NC3CC3)C2)c1 (centres unmarked) [Example 6.082]
at least 90%: activity against Fallopia convolvulus (Fallopia convolvulus) | activity against Stellaria media (Stellaria media [8])
